Results on 38 compounds are retold here after PubChem BioAssay AID2685 (National Center for Advancing Translational Sciences (NCATS), 2010).

Structures are written as SMILES. Some of the results follow. The main result of the screen is listed elsewhere. These columns were measured beside it and carry no call. Most of these compounds were active or inconclusive in the main read-out, so they are no random draw. The note in brackets gives the kind of curve behind each potency; many fits are weak.

A short description of the test: qHTS Assay for Lipid Storage Modulators in Drosophila S3 Cells.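 On cell number change: cells counted by Cell Tracker Red CMTPX staining in the red channel.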 To be noted: BODIPY lipid droplet fluorescence, 18-24 h; for cell number change: measured here: cell count max response, cells fed with added oleic acid. The gist of the method:
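Laser-scanning cytometry quantifies lipid droplet accumulation (500–530 nm total intensity; droplet/cell object ratio) in oleic acid-fed (400 uM added) Drosophila S3 cells treated with a concentration series. 20 uM Triacsin C defined 100% inhibition.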
(Quantitative high-throughput screening tests each substance at several concentrations.)

[1] abbreviates: measured here: cell number channel AC50, cells fed with added oleic acid.
Setting [2] is: measured here: lipid fluorescence (Fed channel) AC50, cells fed with added oleic acid.

Regarding `N#Cc1nc(COc2ccc(Cl)cc2Cl)oc1N1CCN(c2ccccc2)CC1`, the cell number change amounted to 19.5%. For the same compound, under setting [1], the AC50 is 0.291 µM [rising, full curve, poor fit]. The AC50 under setting [2] is 29.1 µM [rising, single point].
For `CCCn1c(SCC(=O)Nc2ccccc2Cl)nc(O)cc1=O`, the AC50 under setting [1] was 6.51 µM [rising, partial curve, poor fit].
As to `O=C(NC1CCCCC1)c1cc(-c2ccc(Cl)cc2)on1`, the cell number change was 21.8%.
As to `Cc1cc(C)cc(NC(=O)CSc2nncn2-c2ccccn2)c1`, the cell number change stood at 15%. In addition, the AC50 under setting [2] is 29.1 µM [rising, single point].
For the compound `CCCCOc1ccc(-c2cnc3ccccc3n2)cc1`, the cell number change was -4.04%. Besides, the AC50 under setting [1] was 0.517 µM [falling, full curve, poor fit]. The AC50 under setting [2] was 0.58 µM [falling, partial curve].
As to `COC(=O)c1ccc(NC(=O)C[n+]2ccccc2C)cc1`, the cell number change was 7.97%. Further, the AC50 under setting [2] was 6.51 µM [rising, single point].
Turning to `COc1ccccc1CC(NC(C)=O)C(=O)NC1CCN(S(=O)(=O)c2ccc(NC(C)=O)cc2)CC1` (stereo not drawn), the cell number change came out at 10.3%. The AC50 under setting [2] was 5.17 µM [rising, single point].
Consider `Cc1c(NC(=S)NC(=O)C2CCCCC2)c(=O)n(-c2ccccc2)n1C`, for which the cell number change is -4.03%. Moreover, the AC50 under setting [2] was 29.1 µM [rising, single point].
On to `O=C(COC(=O)c1c(Cl)ccc(Cl)c1Cl)NC(=O)NCc1ccccc1`, for which the cell number change is 30.7%. The AC50 under setting [1] is 0.92 µM [rising, partial curve]. Moreover, under setting [2], the AC50 is 18.4 µM [rising, single point].
For the compound `O=C(Nc1ccc2nc(-c3cccs3)c(-c3cccs3)nc2c1)N1CCOCC1`, the AC50 was 2.31 µM [rising, partial curve] under setting [1] and 0.82 µM [rising, single point] under setting [2].
For the compound `N#Cc1ccc(S(=O)(=O)N2CCN(c3ncccn3)CC2)cc1`, the cell number change was -47.7%. Also, the AC50 under setting [1] is 0.92 µM [falling, full curve]. Also, under setting [2], the AC50 was 0.0731 µM [falling, full curve, poor fit].
Consider `COc1ccc(Cl)cc1NC(=O)COC(=O)C1CC1`, for which the cell number change stood at 2.12%. For the same compound, under setting [2], the AC50 was 0.0058 µM [rising, full curve, poor fit].
As for `Cc1ccc2cc(C)c3nnc(SCC(=O)NCc4ccco4)n3c2c1`, the cell number change was -8.51%.
Regarding `COC(OC)c1ccnc(-c2ccc(OC(C)=O)cc2)n1`, the cell number change came to 0.911%. Besides, under setting [1], the AC50 is 2.31 µM [rising, single point]. Also, the AC50 under setting [2] is 2.31 µM [rising, single point].
With `O=C1OC(Cc2ccccn2)C(O)=C1C1=NCCCN1` (stereo not drawn), the cell number change turned out to be 61.1%. For the same compound, the AC50 under setting [1] is 29.1 µM [rising, single point]. Further, the AC50 under setting [2] was 20.6 µM [rising, partial curve].
Regarding `Cc1ccc(NC(=O)C2SC(=Nc3ccccc3)C(C(=O)Nc3ccc(Cl)cc3)=C2N)cc1` (stereo not drawn), the cell number change was -18.7%. The AC50 under setting [2] is 0.126 µM [falling, full curve, poor fit].
Take `O=C(N/N=C/c1ccccn1)c1cc(-c2ccc(Br)s2)[nH]n1`: the cell number change is -3.85%.
On to `Cc1cccc(C)c1Nc1nnc(SCC(=O)NC2CCS(=O)(=O)C2)s1` (stereo not drawn), for which the cell number change is -24.7%.
For the compound `O=C(CCn1c(=O)oc2ccccc21)N1CCN(C(c2ccccc2)c2ccccc2)CC1`, the cell number change came out at 12.9%.
As for `Cc1ccc(CN2CCSc3ccc(C(=O)N4CCOCC4)cc32)cc1`, the cell number change is -14.2%. The AC50 under setting [2] is 29.1 µM [falling, single point].
For `Cc1cc(/C=N/O)c(C)n1-c1ccccc1`, the cell number change was 5.35%. Further, the AC50 under setting [2] is 5.8 µM [rising, partial curve, poor fit].
On to `COc1ccc(N2CCN(C(=O)CSc3nnc4c(C)cc5cc(C)ccc5n34)CC2)cc1`, for which the cell number change turned out to be 8.98%. Further, under setting [2], the AC50 was 0.58 µM [rising, full curve].
As to `Cc1cc(N/N=C/c2ccc(O)cc2O)nc(-c2ccccc2O)n1`, the cell number change was -35%. Besides, under setting [1], the AC50 is 0.82 µM [rising, partial curve, poor fit]. Also, the AC50 under setting [2] is 23.1 µM [falling, partial curve].
Regarding `O=C1OC(c2ccccc2)=C/C1=C/N1CCCCC1`, the cell number change is -27.5%. For the same compound, the AC50 under setting [2] is 29.1 µM [falling, single point].
Consider `CCCNC(=O)NC(=O)COC(=O)c1ccc(OC)c(S(=O)(=O)N2CCCc3ccccc32)c1`, for which the cell number change is -34.7%.
As for `CCCC(=O)NC(NC(=S)Nc1c(C)n(C)n(-c2ccccc2)c1=O)C(Cl)(Cl)Cl` (stereo not drawn), the cell number change was -8.18%. Moreover, the AC50 under setting [2] was 6.51 µM [falling, single point].
`CCc1nc2ccc(C(=O)N3CCN(c4ccccc4F)CC3)cc2nc1CC`: the cell number change was found to be 11.8%. Under setting [2], the AC50 is 29.1 µM [rising, partial curve].
Turning to `CC(C)c1ccc(/C=C2\SC(=O)N(CC(=O)NCCCn3ccnc3)C2=O)cc1`, the cell number change is -4.58%. The half-maximal activity concentration (AC50) under setting [2] was 29.1 µM [rising, single point].
As to `O=C(NC1CCCc2ccccc21)C1CCN(C(=O)c2sccc2-n2cccc2)CC1` (stereo not drawn), the AC50 under setting [2] was 16.4 µM [rising, partial curve].
As to `CCc1cccc(C)c1NC(=O)Nc1ccc2c(c1)OCO2`, the cell number change was found to be 55.4%. The AC50 under setting [1] is 29.1 µM [rising, single point].
For `CC(C)c1ccc(NC(=O)CSc2nc3c(c(=O)[nH]2)CCC3)cc1`, the cell number change was -4.17%. For the same compound, under setting [2], the AC50 is 18.4 µM [falling, partial curve].
`COc1ccc2ccc3c(c2c1)N=CC1(O3)N(C)c2ccccc2C1(C)C` (stereo not drawn): the cell number change is -34%. Also, under setting [1], the AC50 was 3.66 µM [falling, partial curve, poor fit]. Further, under setting [2], the AC50 was 2.91 µM [falling, partial curve, poor fit].
Regarding `O=C(Nc1ccccc1N1CCCCC1)c1ccc(F)c(S(=O)(=O)N2CCOCC2)c1`, the cell number change was 15.7%.
As for `COC(=O)c1nn(C23CC4CC(CC(C4)C2)C3)c2c1C(=O)N(c1ccc(Br)cc1)C2=O`, the AC50 under setting [1] was 0.0058 µM [rising, full curve, poor fit].
Turning to `CC(C)Cc1nnc(NC(=O)CN2C(=O)c3ccccc3C2=O)s1`, the cell number change amounted to 7.32%. In addition, under setting [2], the AC50 is 0.92 µM [falling, single point].
In the case of `CCC(CC)C(=O)c1c[nH]c(C(=O)O)c1`, the cell number change was -28.4%. The AC50 under setting [1] is 4.61 µM [falling, full curve, poor fit].
Consider `O=C(c1ccc(S(=O)(=O)N2CCOCC2)cc1)N(c1ccccn1)C1CCCCC1`, for which the cell number change is -0.64%.
With `CCN(CC(=O)NCc1cccs1)CC(=O)Nc1ccccc1C`, the cell number change was -0.194%. For the same compound, the AC50 under setting [2] was 0.116 µM [rising, full curve, poor fit].

The term AC50 denotes the midpoint of the concentration-response curve, whichever way the signal moves. A higher AC50 goes with activity only at high concentration.
